Data: PubChem BioAssay AID588590 (National Center for Advancing Translational Sciences (NCATS), 2011)
The campaign covered roughly 390,000 compounds. About 4,000 (1%) were called active. Inconclusive means that the source gave no clear call. Such entries were picked first, then a sample of the others. Calls come from the whole dose curve; as a rule, active = well fitted inhibition curve with a large enough effect; inconclusive = small, poorly fitted or top-dose-only effect, or another doubt; inactive = no such curve, though single readings can be large or run the other way. Where the call is inconclusive, the potency comes from a doubtful curve fit.

The chains behind the UniProt entries cited, without tags or fusion partners. Where a name states a change or a piece, a line headed by the entry shows the natural chain unless it says otherwise.
UniProt Q9UNA4: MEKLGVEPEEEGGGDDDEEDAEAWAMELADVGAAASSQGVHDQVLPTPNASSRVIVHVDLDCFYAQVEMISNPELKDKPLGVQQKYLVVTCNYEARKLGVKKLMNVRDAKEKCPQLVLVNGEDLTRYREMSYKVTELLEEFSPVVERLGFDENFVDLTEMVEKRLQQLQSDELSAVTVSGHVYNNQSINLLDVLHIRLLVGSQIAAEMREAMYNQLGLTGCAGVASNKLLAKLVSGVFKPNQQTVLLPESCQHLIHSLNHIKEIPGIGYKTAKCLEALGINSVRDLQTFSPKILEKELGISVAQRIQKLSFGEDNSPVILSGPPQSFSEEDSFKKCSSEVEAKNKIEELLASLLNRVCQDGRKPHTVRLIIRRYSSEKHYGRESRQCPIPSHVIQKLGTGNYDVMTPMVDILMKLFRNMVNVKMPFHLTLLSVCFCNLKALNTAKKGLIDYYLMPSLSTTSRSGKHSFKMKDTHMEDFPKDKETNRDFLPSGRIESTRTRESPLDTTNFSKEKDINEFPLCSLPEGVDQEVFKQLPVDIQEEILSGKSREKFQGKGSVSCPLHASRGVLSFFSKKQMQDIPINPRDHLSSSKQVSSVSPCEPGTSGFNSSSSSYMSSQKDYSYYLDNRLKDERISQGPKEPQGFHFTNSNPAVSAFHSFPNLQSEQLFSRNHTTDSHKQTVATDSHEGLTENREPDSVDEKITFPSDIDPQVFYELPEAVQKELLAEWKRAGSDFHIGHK

biological target: DNA polymerase iota (Homo sapiens) (UniProt Q9UNA4); assay: qHTS for Inhibitors of Polymerase Iota; conditions: Pol iota fluorescent replication assay, 10 min; series mostly up to 115 µM; activity, negative = inhibition: at the top concentration
Procedure, shortened: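 Fluorescent replication assay read twice, at 0 min and 10 min after adding 50 nM (final) substrate. Enzyme (10 nM) and compounds were first incubated 15 min at room temperature; enzyme-free buffer wells were negative controls.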
Potency is the fitted concentration of half-maximal effect.

Compound	Potency	activity, negative = inhibition
C/C(N)=C(/C#N)C(=O)COC(=O)Cc1coc2cc(C)ccc12	inconclusive: 22.4 µM [inhibitor, partial curve, poor fit]	–
CCOc1ccc2[nH]cc(-c3csc(N)n3)c2c1	inconclusive: 35.5 µM [inhibitor, single point]	–
COc1ccc(NC(=O)Cn2nc(C(F)(F)F)c3c2CCCC3)cc1OC	inconclusive: 79.4 µM [inhibitor, partial curve, poor fit]	–
Cc1nc2ccc(NC(=O)Cc3ccc(Br)cc3)cc2s1	inconclusive: 79.4 µM [inhibitor, partial curve, poor fit]	–
C/C(=N/NC(=O)CSc1nc2ccccc2n1C)c1ccncc1	inconclusive: 89.1 µM [inhibitor, single point]	–
N#C/C(=C(/O)CSc1nnc(Cc2cccs2)n1C1CCCCC1)c1nc2ccccc2[nH]1	inconclusive: 112 µM [inhibitor, partial curve, poor fit]	–
Cc1ccc(S(=O)(=O)/N=C2/NC(=O)/C(=C/c3ccccc3)S2)cc1	inconclusive: 17.8 µM [inhibitor, full curve, poor fit]	–
CCOc1cc(N2CCOCC2)c(OCC)cc1NC(=O)CSc1ccccc1C(=O)O	inconclusive: 14.1 µM [inhibitor, full curve, poor fit]	–
COc1ccc(CNc2ncnc3c2[nH]c2cc(OC)c(OC)cc23)cc1	inconclusive: 6.31 µM [inhibitor, full curve]	–
Cc1ccc(C(C)C)c(OCc2nc(-c3nonc3N)no2)c1	inconclusive: 50.1 µM [inhibitor, partial curve, poor fit]	–
Cc1cccc(C)c1NC(=O)CSc1nc2ccccc2c2nc(CCc3c(C)n[nH]c3C)nn12	inconclusive: 89.1 µM [inhibitor, single point]	–
CC1(c2ccccc2Cl)NC(=O)N(CC(=O)Nc2ccc3c(c2)OCO3)C1=O (centres undefined)	–	inactive: 122%
CCCOc1ccc(C(=O)Nc2ccc3oc(-c4ccc(N(C)C)cc4)nc3c2)cc1	–	inactive: -7.61%
Cc1cccc(C(=O)NC(=S)Nc2cccc3nc(C)ccc23)c1	active: 31.6 µM	–
Cc1nc(NC(C)c2ccccc2)c2oc3ccccc3c2n1 (centres undefined)	inconclusive: 3.16 µM [inhibitor, full curve, poor fit]	–
COc1cc(/C=C2/C(=N)N3N=C(CC(=O)N4CCOCC4)SC3=NC2=O)ccc1OC(C)c1ccccc1 (centres undefined)	inconclusive: 35.5 µM [inhibitor, full curve, poor fit]	–
O=C1CNC(=S)N1Cc1ccccc1Cl	inconclusive: 39.8 µM [inhibitor, single point]	–
O=S(=O)(NCC1CCCO1)c1ccc(S(=O)(=O)N(Cc2ccccc2F)C2CCCCC2)cc1 (centres undefined)	inconclusive: 14.1 µM [inhibitor, full curve]	–
Nc1cc(=O)[nH]c(SCc2nnc(-c3ccccc3)o2)n1	inconclusive: 17.8 µM [inhibitor, single point]	–
N#CCCn1cc(/C=N/NC(=O)c2ccncc2)c(-c2ccccc2)n1	inconclusive: 112 µM [inhibitor, single point]	–

Compound	Potency	activity, negative = inhibition
O=C(NCc1ccco1)c1cc(S(=O)(=O)N2CCCC2)ccc1Cl	inconclusive: 100 µM [inhibitor, single point]	–
CCC1CCC(N2CCN(c3ccc([N+](=O)[O-])cc3)CC2)CC1 (centres undefined)	inconclusive: 79.4 µM [inhibitor, partial curve]	–
CCOC(=O)C(=CNc1ccc2c(c1)CCN2C(C)=O)C(=O)OCC	inconclusive: 39.8 µM [inhibitor, single point]	–
COc1cc(/C=C(\C#N)C(=O)NC(C)C)ccc1OCc1ccc(C(=O)O)cc1	inconclusive: 15.8 µM [inhibitor, full curve]	–
CC1=C(C(=O)Nc2ccccc2)C(c2ccc[nH]2)n2ncnc2N1 (centres undefined)	inconclusive: 20 µM [inhibitor, full curve, poor fit]	–
COc1ccc(-c2nn(-c3ccccc3)cc2C(=O)NC(=S)N2CCOCC2)cc1OC	inconclusive: 20 µM [inhibitor, partial curve, poor fit]	–
O=C(c1cc2c(s1)CCCCC2)N1CCN(c2ncccn2)CC1	inconclusive: 50.1 µM [inhibitor, partial curve, poor fit]	–
O=C(NCCO)C(=O)Nc1cc2c3c(c1)CC(=O)N3CCC2	inconclusive: 12.6 µM [inhibitor, partial curve]	–
Cc1ccc(C2CC(C(F)(F)F)n3ncc(C(=O)NCc4ccco4)c3N2)cc1 (centres undefined)	inconclusive: 39.8 µM [inhibitor, single point]	–
CSc1nc(=S)c2[nH]c(=S)[nH]c2[nH]1	active: 14.1 µM	–
C#C[C@]1(O)CC[C@H]2C3CCC4=Cc5oncc5CC4(C)C3CCC21C (some centres undefined)	inconclusive: 2.82 µM [inhibitor, full curve]	–
O=C(Cn1ncn2c(cc3ccccc32)c1=O)NCc1ccco1	inconclusive: 25.1 µM [inhibitor, full curve, poor fit]	–
Nc1cc(N)nc(SCC(=O)c2ccccc2)n1	inconclusive: 39.8 µM [inhibitor, single point]	–
O=Cc1c(-c2ccc(Cl)cc2)oc2ccc(O)cc12	inconclusive: 50.1 µM [inhibitor, partial curve, poor fit]	–
C[N+]1(C)CCC(=C2c3ccccc3CC(=O)c3sccc32)CC1	active: 15.8 µM	–
CC(=O)Nc1ccc(C(=O)Nc2nc(-c3ccccn3)cs2)cc1	inconclusive: 15.8 µM [inhibitor, partial curve, poor fit]	–
Nc1cccc(C(=O)Nc2ccc3nc(-c4cccnc4)[nH]c3c2)c1	inconclusive: 50.1 µM [inhibitor, partial curve]	–
CC(=O)Nc1ccc(/C=C/c2nc3ccccc3s2)cc1	inconclusive: 79.4 µM [inhibitor, single point]	–
COc1ccc(-n2c(SCC(=O)Nc3ccccc3)nnc2-c2ccoc2C)cc1	inconclusive: 89.1 µM [inhibitor, single point]	–

Three of the compounds above, with each value named:
N#C/C(=C(/O)CSc1nnc(Cc2cccs2)n1C1CCCCC1)c1nc2ccccc2[nH]1
  Potency: inconclusive: 112 µM [inhibitor, partial curve, poor fit]
CCOC(=O)C(=CNc1ccc2c(c1)CCN2C(C)=O)C(=O)OCC
  Potency: inconclusive: 39.8 µM [inhibitor, single point]
COc1ccc(-c2nn(-c3ccccc3)cc2C(=O)NC(=S)N2CCOCC2)cc1OC
  Potency: inconclusive: 20 µM [inhibitor, partial curve, poor fit]
